Measurements from PubChem BioAssay AID2417 (National Center for Advancing Translational Sciences (NCATS), 2010).
Hit rate of the full screen: of about 140,000 compounds, about 4,300 (3.1%) were called active. The shares of active, inactive and inconclusive entries below differ from those in the screen.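 The calls were made as follows: active = readout at or below -70, meaning at least 70% loss of cells showing the perinucleolar compartment, a nuclear body marking cancer cells; inconclusive = readout between -30 and a set limit; inactive = the rest.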

Experiment: High Content Assay for Compounds that inhibit the Assembly of the Perinucleolar Compartment;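 also: plate controls were DMSO wells for no effect and camptothecin positive control wells for full effect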
Details: PC3M PTB-GFP, PNC prevalence imaging, 16 h; at 10 µM; hits give low values
In short: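 Compounds are pinned in duplicate onto adhered PC3M cells stably expressing GFP-tagged PTB and incubated 16 h at 37 C. Cells are then fixed, nuclei stained with Hoechst, and PNC-positive cells counted.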
With `COc1ccc(N2CCN(C(=O)CN3C(=O)C4CC=CCC4C3=O)CC2)cc1` (stereo not given) the activity change (PNC), negative = inhibition was inconclusive: -57.6%. In the case of `Oc1ccc(Nc2nc(N3CCCC3)c3ccccc3n2)cc1`, the activity change (PNC), negative = inhibition is reported as inconclusive: -60%. In the case of `CS(=O)(=O)N(CC(=O)NCc1ccc2c(c1)OCO2)Cc1ccc(Cl)cc1`, the activity change (PNC), negative = inhibition is reported as inconclusive: -43.7%. With `Cc1noc(C)c1COC(=O)c1ccc2ccccc2n1` the activity change (PNC), negative = inhibition was inconclusive: -44.8%. In the case of `N#CCCn1c(=S)[nH]c2ccccc21`, the activity change (PNC), negative = inhibition is reported as inconclusive: -76.4%. In the case of `CS(=O)(=O)N(CC(=O)N1CCOCC1)c1ccc2c(c1)OCO2`, the activity change (PNC), negative = inhibition is reported as inconclusive: -30.4%. For `c1ccc(Cn2ncc3c(NCc4ccco4)ncnc32)cc1`, the activity change (PNC), negative = inhibition was active: -105%. With `Cc1ccccc1NC(=O)c1ccc(N/N=C/c2ccccc2O)c([N+](=O)[O-])c1` the activity change (PNC), negative = inhibition was inactive: 38.4%. For `CN1C(=O)N(C)C2C1N(C)S(=O)(=O)N2C` (stereo not given), the activity change (PNC), negative = inhibition was inconclusive: -31.5%. With `O=C(NC1CCCCC1)NC1CC2CCC(C1)N2Cc1nnnn1Cc1ccc2c(c1)OCO2` (stereo not given) the activity change (PNC), negative = inhibition was inactive: -8.99%. For `O=C(NC1CC1)c1ccc(S(=O)(=O)NC2CCCCCC2)cc1`, the activity change (PNC), negative = inhibition was inactive: -10.1%. With `N#Cc1cc2c(nc1SCC(=O)N1CCCCC1)CCCC2` the activity change (PNC), negative = inhibition was inactive: 68.3%. For `N=c1sccn1CC(=O)Nc1ccc(S(=O)(=O)N2CCOCC2)cc1`, the activity change (PNC), negative = inhibition was inconclusive: -32.3%. For `Cc1ccc(C(=O)Nc2nc3ccc(S(C)(=O)=O)cc3s2)s1`, the activity change (PNC), negative = inhibition was inactive: 22%. With `CCOCC(=O)Nc1ccc2c(c1)OCCO2` the activity change (PNC), negative = inhibition was inconclusive: -47.3%. For `COc1ccccc1-n1cnc2cc(C(=O)NC3CCCC3)ccc21`, the activity change (PNC), negative = inhibition was inactive: 10.1%. With `CCOC(=O)CSc1ncc(OC)c(=O)[nH]1` the activity change (PNC), negative = inhibition was inconclusive: -66.4%. In the case of `O=C(c1cccc([N+](=O)[O-])c1)n1nc(-c2ccccc2)nc1NCc1ccccc1`, the activity change (PNC), negative = inhibition is reported as inconclusive: -43.9%. For `CCOC(=O)CNC(=O)C(CO)NC(=O)OCc1ccccc1` (stereo not given), the activity change (PNC), negative = inhibition was inconclusive: -35.1%. With `O=C(CCCn1c(=O)[nH]c2cc(Cl)ccc2c1=O)NCC1CCCO1` (stereo not given) the activity change (PNC), negative = inhibition was active: -119%. In the case of `CCCC(=O)NC(c1ccc2c(c1)OCO2)c1cc(Cl)c2cccnc2c1O` (stereo not given), the activity change (PNC), negative = inhibition is reported as inconclusive: -37.8%. With `COc1ccc(C(=O)C[n+]2ccc(-c3nnc4n3CCC4)cc2)cc1` the activity change (PNC), negative = inhibition was inconclusive: -67.3%. With `CC(c1ccccc1)C1CC(=O)N(Cc2ccco2)C1=O` (stereo not given) the activity change (PNC), negative = inhibition was inconclusive: -38.5%. With `O=C(c1ccccn1)N(CC1CCCO1)C1(C(=O)NC2CCCCC2)CCCCC1` (stereo not given) the activity change (PNC), negative = inhibition was inconclusive: -60.7%. For `O=C(CSc1n[nH]c(-c2ccco2)n1)N1c2ccccc2Sc2ccccc21`, the activity change (PNC), negative = inhibition was inconclusive: -75.6%. For `O=C1CCCN1CCCNCC(=O)N1c2ccccc2Sc2ccccc21`, the activity change (PNC), negative = inhibition was inactive: 9.89%. In the case of `Cc1cc(NC(=O)CSc2nnc(Cc3ccccc3)n2C)no1`, the activity change (PNC), negative = inhibition is reported as inconclusive: -59.9%. For `COCCCN1C(=O)c2ccc(C(=O)Nc3ccccc3OC)cc2C1=O`, the activity change (PNC), negative = inhibition was inconclusive: -79.3%. With `CN(C1CCCCC1)S(=O)(=O)c1ccc(C(=O)N2CCN(c3nc4ccccc4s3)CC2)cc1` the activity change (PNC), negative = inhibition was inconclusive: -47.5%. For `CS(=O)(=O)N(CC(=O)N1CCCC1)c1cccc(Cl)c1`, the activity change (PNC), negative = inhibition was inconclusive: -38.5%. For `Cc1ccc(C2CC(c3ccco3)n3nc(N)nc3N2)cc1` (stereo not given), the activity change (PNC), negative = inhibition was inconclusive: -33.3%. In the case of `Cc1cccc(NC(=O)c2cc(S(=O)(=O)c3ccccc3)ccc2Cl)c1`, the activity change (PNC), negative = inhibition is reported as inactive: -26.4%. In the case of `COc1cnc(-c2ccccn2)nc1Sc1ccc(Cl)cc1`, the activity change (PNC), negative = inhibition is reported as inactive: 4.96%. In the case of `CCCCOC(=O)Nc1ccc(C)c(Cl)c1`, the activity change (PNC), negative = inhibition is reported as inactive: -20.5%. With `CCOC(=O)CSC1=C(C#N)C(c2ccccc2F)C(C(C)=O)=C(C)N1` (stereo not given) the activity change (PNC), negative = inhibition was inactive: 21.6%. For `CCc1nc(SCc2cccnc2)c2c(=O)n(C)c(=O)n(C)c2n1`, the activity change (PNC), negative = inhibition was inactive: -22.1%. In the case of `O=C1C(Cl)=C(N2CCCCC2)C(=O)N1c1ccccc1`, the activity change (PNC), negative = inhibition is reported as inconclusive: -44.9%. With `Brc1cccc(-c2cnc3n2CCCCC3)c1` the activity change (PNC), negative = inhibition was inactive: 6.6%. In the case of `CCC(C(=O)Nc1ccc(OC)c(Cl)c1)c1ccccc1` (stereo not given), the activity change (PNC), negative = inhibition is reported as inactive: -27.9%. In the case of `O=C(CSc1nnc(CNC(=O)c2cccs2)o1)c1ccc(Cl)cc1`, the activity change (PNC), negative = inhibition is reported as inconclusive: -48.3%. In the case of `COc1ccc(C)cc1NC(=O)C1CC(=O)OC12CCCCC2` (stereo not given), the activity change (PNC), negative = inhibition is reported as inactive: -2.87%. With `CC(C)NC(=O)Cn1c(SCC(=O)N2CCc3ccccc3C2)nc2ccccc21` the activity change (PNC), negative = inhibition was inconclusive: -54.3%. With `CCn1c(SCC(=O)Nc2ccc3c(c2)OCO3)nc2c1c(=O)n(C)c(=O)n2C` the activity change (PNC), negative = inhibition was inconclusive: -34.4%. In the case of `O=C(NC(=S)Nc1ccc2c(c1)OCO2)c1ccc(Cl)cc1`, the activity change (PNC), negative = inhibition is reported as inactive: 7.79%. With `O=S(=O)(c1ccccc1)c1nc(-c2ccccc2)oc1NCc1cccnc1` the activity change (PNC), negative = inhibition was inconclusive: -57.6%. In the case of `CCN(CC)CC(=O)NN=C(c1ccccc1)c1ccccc1`, the activity change (PNC), negative = inhibition is reported as inconclusive: -47.9%. In the case of `Cn1cccc1/C=C1\SC(=O)N(CC(=O)Nc2ccc(Cl)cc2)C1=O`, the activity change (PNC), negative = inhibition is reported as inactive: 27%. For `Cc1nn(C)c(C)c1CNC(=O)/C=C/c1ccccc1F`, the activity change (PNC), negative = inhibition was active: -113%. For `Cc1ccc(-c2n[nH]c(=S)n2/N=C/C=C/c2ccccc2[N+](=O)[O-])cc1`, the activity change (PNC), negative = inhibition was inactive: -3.41%. With `O=C1NCC(COCc2ccccc2)O1` (stereo not given) the activity change (PNC), negative = inhibition was inconclusive: -75.6%. In the case of `N[C@@H](Cc1ccccc1)c1nnc2sc(SCc3ccccc3)nn12`, the activity change (PNC), negative = inhibition is reported as inactive: 23.8%. In the case of `COC(=O)c1ccc(-c2nc3ccccc3o2)cc1`, the activity change (PNC), negative = inhibition is reported as inconclusive: -31.5%. In the case of `Cc1nc(C)c(C(=O)NCc2ccc(Cl)cc2)o1`, the activity change (PNC), negative = inhibition is reported as inconclusive: -39.1%. For `Nc1nnc(-c2cn(-c3ccccc3)nc2-c2ccccc2)o1`, the activity change (PNC), negative = inhibition was inconclusive: -64.1%. In the case of `CC(C)c1ccc(O)c(NC(=O)c2cncc(Br)c2)c1`, the activity change (PNC), negative = inhibition is reported as inconclusive: -44.1%. With `CCN1CCN(c2ncnc3c2cnn3-c2ccccc2)CC1` the activity change (PNC), negative = inhibition was inconclusive: -36.8%. In the case of `O=C(Oc1ccccc1C(=S)N1CCCCC1)c1cc([N+](=O)[O-])cc([N+](=O)[O-])c1`, the activity change (PNC), negative = inhibition is reported as active: -100%. In the case of `CCS(=O)(=O)N1CCC(C(=O)NCc2cccc(OC)c2)CC1`, the activity change (PNC), negative = inhibition is reported as inactive: -9.77%. With `CNC(=O)/C(C#N)=C/c1ccc(-c2ccc(OC)cc2[N+](=O)[O-])o1` the activity change (PNC), negative = inhibition was inactive: 14.6%. With `CCCCn1c(NCc2ccccc2O)nc2ccccc21` the activity change (PNC), negative = inhibition was inactive: -11.9%.
